{
  "source": "ChEMBL document CHEMBL4622849",
  "about": "“Discovery of ethyl ketone-based HDACs 1, 2, and 3 selective inhibitors for HIV latency reactivation” (Bioorg Med Chem Lett, 2020)",
  "test_system": "Human immunodeficiency virus",
  "experiment": "microbe, parasite or virus in culture",
  "format": "functional, organism-based",
  "settings": "Human immunodeficiency virus 1, 2C4",
  "data": [
    {"smiles": "Nc1ccc(-c2cccs2)cc1NC(=O)c1ccc(N2CCC3(CC2)CNC(=O)O3)nc1", "values": [
      {"measurement": "EC50", "result": 15.7, "unit": "µM"}
    ]}
  ]
}
